From paper PMC11102138 come the findings set out here.

Chains of the proteins cited; added tags and fusions are not shown. Residues count along the entry.
UniProt Q08857: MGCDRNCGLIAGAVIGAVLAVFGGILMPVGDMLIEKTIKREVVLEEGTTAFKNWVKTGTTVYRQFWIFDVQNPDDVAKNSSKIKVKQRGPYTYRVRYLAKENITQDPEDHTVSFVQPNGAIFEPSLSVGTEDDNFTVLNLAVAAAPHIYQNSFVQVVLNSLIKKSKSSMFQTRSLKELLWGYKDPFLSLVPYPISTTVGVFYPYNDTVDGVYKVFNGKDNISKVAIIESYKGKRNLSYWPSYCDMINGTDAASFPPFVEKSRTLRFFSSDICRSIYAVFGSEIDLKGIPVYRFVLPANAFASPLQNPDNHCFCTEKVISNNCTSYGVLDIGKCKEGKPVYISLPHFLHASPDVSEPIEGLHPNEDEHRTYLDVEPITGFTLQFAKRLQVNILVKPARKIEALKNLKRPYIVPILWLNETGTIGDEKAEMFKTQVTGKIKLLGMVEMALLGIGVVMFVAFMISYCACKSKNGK
UniProt P07724, residues 25-608: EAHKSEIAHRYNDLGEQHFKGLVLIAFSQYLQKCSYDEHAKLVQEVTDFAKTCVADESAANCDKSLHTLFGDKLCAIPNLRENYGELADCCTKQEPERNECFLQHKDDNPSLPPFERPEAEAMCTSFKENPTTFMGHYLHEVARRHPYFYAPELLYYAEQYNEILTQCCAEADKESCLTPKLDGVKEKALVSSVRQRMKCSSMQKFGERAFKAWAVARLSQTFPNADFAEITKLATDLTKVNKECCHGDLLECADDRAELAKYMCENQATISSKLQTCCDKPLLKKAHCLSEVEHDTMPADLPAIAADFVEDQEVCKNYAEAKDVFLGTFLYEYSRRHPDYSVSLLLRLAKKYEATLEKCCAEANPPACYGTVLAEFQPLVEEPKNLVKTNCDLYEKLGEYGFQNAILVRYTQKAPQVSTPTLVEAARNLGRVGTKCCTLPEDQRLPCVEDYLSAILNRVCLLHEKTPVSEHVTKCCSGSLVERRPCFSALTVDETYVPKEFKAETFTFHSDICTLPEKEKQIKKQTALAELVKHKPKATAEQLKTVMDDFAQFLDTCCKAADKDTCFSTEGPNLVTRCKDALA
UniProt Q9QX11: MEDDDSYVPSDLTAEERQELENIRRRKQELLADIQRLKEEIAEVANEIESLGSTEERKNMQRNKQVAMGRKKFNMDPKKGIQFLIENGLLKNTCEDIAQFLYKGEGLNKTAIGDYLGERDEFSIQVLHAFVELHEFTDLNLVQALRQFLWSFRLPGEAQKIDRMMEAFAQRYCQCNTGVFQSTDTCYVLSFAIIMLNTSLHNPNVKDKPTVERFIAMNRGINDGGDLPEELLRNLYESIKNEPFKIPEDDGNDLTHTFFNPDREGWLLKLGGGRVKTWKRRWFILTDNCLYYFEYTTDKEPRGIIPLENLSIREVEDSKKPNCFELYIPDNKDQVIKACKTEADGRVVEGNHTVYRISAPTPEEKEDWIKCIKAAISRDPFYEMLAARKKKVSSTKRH
UniProt Q3TFK5: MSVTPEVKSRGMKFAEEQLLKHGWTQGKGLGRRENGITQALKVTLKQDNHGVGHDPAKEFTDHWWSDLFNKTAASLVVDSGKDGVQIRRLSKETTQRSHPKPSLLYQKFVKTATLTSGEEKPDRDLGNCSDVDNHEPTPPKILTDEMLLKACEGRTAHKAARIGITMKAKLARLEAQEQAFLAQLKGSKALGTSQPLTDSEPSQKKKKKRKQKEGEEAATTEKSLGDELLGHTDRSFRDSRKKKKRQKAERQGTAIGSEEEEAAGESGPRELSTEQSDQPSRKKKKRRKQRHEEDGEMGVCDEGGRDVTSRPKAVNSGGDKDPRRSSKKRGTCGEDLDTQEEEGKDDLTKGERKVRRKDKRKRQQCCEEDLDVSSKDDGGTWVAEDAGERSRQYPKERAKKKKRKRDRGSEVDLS
UniProt P01942: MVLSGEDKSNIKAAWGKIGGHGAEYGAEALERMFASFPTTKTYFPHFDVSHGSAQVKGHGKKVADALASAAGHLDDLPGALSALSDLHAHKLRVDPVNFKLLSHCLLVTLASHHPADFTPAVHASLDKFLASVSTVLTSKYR
UniProt Q61316: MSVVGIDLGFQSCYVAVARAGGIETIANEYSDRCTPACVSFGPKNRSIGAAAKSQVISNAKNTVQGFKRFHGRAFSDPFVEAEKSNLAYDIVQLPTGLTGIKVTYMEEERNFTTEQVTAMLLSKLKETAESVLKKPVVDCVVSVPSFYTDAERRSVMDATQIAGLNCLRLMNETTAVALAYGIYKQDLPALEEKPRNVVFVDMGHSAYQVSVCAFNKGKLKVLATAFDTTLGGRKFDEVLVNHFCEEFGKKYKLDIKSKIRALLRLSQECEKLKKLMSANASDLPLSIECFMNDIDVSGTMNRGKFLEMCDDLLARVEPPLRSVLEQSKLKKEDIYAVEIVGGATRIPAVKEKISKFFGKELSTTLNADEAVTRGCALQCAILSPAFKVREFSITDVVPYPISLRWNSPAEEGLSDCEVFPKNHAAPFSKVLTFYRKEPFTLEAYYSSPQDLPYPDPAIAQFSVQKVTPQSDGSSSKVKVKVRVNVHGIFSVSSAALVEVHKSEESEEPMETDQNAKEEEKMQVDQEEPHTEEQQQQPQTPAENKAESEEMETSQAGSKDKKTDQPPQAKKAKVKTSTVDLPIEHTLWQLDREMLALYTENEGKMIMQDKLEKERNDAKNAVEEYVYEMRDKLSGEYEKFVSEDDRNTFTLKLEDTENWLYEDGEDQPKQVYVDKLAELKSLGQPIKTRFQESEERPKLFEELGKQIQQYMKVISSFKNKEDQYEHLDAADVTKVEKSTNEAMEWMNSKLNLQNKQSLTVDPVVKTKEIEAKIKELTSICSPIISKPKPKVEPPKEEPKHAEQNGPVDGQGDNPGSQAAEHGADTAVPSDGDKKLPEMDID
UniProt O08677, residues 21-661: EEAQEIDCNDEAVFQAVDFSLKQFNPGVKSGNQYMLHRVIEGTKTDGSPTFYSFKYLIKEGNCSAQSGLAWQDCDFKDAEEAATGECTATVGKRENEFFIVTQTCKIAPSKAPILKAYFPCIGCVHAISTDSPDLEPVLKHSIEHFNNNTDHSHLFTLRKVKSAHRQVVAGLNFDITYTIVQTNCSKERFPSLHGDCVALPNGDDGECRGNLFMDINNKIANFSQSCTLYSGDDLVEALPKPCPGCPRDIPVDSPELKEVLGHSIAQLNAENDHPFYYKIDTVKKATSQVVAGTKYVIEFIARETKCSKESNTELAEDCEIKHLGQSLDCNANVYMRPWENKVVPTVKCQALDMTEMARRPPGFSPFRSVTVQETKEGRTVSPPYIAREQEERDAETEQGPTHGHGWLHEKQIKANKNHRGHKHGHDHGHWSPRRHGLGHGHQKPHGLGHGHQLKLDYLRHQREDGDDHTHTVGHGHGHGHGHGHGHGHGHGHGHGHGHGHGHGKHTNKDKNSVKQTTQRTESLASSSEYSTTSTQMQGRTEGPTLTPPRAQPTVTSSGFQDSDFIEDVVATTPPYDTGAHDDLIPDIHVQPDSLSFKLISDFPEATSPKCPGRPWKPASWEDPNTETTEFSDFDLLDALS

The labels stand for the following.
B1: CA1 (protein, UniProt P13634 1-261)
chain: MASADWGYGSENGPDQWSKLYPIANGNNQSPIDIKTSEANHDSSLKPLSISYNPATAKEIVNVGHSFHVIFDDSSNQSVLKGGPLADSYRLTQFHFHWGNSNDHGSEHTVDGTRYSGELHLVHWNSAKYSSASEAISKADGLAILGVLMKVGPANPSLQKVLDALNSVKTKGKRAPFTNFDPSSLLPSSLDYWTYFGSLTHPPLHESVTWVICKDSISLSPEQLAQLRGLLSSAEGEPAVPVLSNHRPPQPLKGRTVRASF
B2: GC (protein, UniProt P21614 17-476)
chain: LERGRDYEKDKVCNELAMLGKEDFRSLSLILYSRKFSSSTFEQVNQLVKEVVSLTEECCAEGADPTCYDTRTSELSVKSCESDAPFPVHPGTPECCTKEGLERKLCMAALSHQPQEFPTYVEPTNDEICEAFRRDPKGFADQFLYEYSSNYGQAPLPLLVAYTKNYLSMVGSCCTSANPTVCFVKERLQMKHLSLLTTMSNRVCSQYAAYGKEKSRLSHLIKLAQKVPTANLENVLPLAEDFTEILSRCCESTSEDCMASELPEHTIKICQNLSKKNSKFEECCQENTPMNIFMCTYFMPAAEPLQLPAIKLPTGKDLCGQSTTQAMDQYTFELSRRTQVPEVFLSKVLEPTLKTLRECCDTQDSVACFSTQSPLLKRQLTSFIEKGQEMCADYSENTFTEYKKKLAERLRTKTPNTSPAELKDMVEKHSDFASKCCSINSPPLYCSSQIDAEMIDTLQS

Results are given in words; binding and its absence hold for the method and conditions named. In cells and extracts the contact can be indirect. These calls come from enrichment with a bait or labelling near it, and not all partners need be listed.

The target of this experiment is scavenger receptor CD36 (mouse (endogenous in primary B cells)) (UniProt Q08857). In words: affinity purification with mass spectrometry; anti-CD36 immunoprecipitation from lysate of primary mouse B cells stimulated with 1 μM CpG; filter-aided trypsin digestion, TMT10plex labelling, LC-MS/MS; search against the human Swiss-Prot database, 1% FDR.
As to ALB (from UniProt P07724 25-608), the binding result is recorded as “binds”.

On to CYTH1 (from UniProt Q9QX11 1-398), for which the binding result is reported as “binds”.

Take GPATCH4 (from UniProt Q3TFK5 1-415): the binding result was “binds”.

With HBA (from UniProt P01942 1-142), the binding result was “binds”.

As to HSPA4 (from UniProt Q61316 1-841), the binding result is “binds”.

As to KNG1 (from UniProt O08677 21-661), the binding entry is reported as “binds”.

Consider B1, for which the binding entry was “binds”.

Regarding B2, the binding result is “binds”.
